Results are given in words; binding and its absence hold for the method and conditions named. A result given as binding can be weak or reduced; the word gives no strength. Tags and fused reporters may be left off the sequences shown.

This assay has as its target SepT (All2460), BACTH fusions (Anabaena sp. PCC 7120). Put plainly: two-hybrid; BACTH (bacterial adenylate cyclase two-hybrid) in E. coli; beta-galactosidase activity (nmol ONP min^-1 mg protein^-1) in liquid cultures at 30°C; compared with both empty-vector controls (Fig. 3A).

B1: Alr0487 (putative SepF), BACTH fusion (protein, UniProt Q8YZH3 1-198)
chain: MNNIFSKLRDFVGLNEQVEYEYYEEEADTDNYQNLYQQENPQPAPAEAAPNNRRWREPMTTMGDDVAAGTKSAMGNVIGMPGAINGISEVLVLEPRTFEEMPQAIQALRERKSVVLNLTIMDPDQAQRAVDFVAGGTYALDGHQERIGESIFLFTPSCVQVSTQGGVIHEVPQPPARPARPASTNPPAWGNETNRMAQ
With B1, the binding result is “binds”.

(Values after paper PMC10653889.)
